According to paper PMC10411474:
These are yes or no findings as the source states them, for the method shown. Binding seen in cells or lysates may run through a third protein. Some entries that bind do so weakly or less than the wild type.

Protein sequences, listed by entry. Tags and fused reporters are not part of them.
UniProt Q9UPY3: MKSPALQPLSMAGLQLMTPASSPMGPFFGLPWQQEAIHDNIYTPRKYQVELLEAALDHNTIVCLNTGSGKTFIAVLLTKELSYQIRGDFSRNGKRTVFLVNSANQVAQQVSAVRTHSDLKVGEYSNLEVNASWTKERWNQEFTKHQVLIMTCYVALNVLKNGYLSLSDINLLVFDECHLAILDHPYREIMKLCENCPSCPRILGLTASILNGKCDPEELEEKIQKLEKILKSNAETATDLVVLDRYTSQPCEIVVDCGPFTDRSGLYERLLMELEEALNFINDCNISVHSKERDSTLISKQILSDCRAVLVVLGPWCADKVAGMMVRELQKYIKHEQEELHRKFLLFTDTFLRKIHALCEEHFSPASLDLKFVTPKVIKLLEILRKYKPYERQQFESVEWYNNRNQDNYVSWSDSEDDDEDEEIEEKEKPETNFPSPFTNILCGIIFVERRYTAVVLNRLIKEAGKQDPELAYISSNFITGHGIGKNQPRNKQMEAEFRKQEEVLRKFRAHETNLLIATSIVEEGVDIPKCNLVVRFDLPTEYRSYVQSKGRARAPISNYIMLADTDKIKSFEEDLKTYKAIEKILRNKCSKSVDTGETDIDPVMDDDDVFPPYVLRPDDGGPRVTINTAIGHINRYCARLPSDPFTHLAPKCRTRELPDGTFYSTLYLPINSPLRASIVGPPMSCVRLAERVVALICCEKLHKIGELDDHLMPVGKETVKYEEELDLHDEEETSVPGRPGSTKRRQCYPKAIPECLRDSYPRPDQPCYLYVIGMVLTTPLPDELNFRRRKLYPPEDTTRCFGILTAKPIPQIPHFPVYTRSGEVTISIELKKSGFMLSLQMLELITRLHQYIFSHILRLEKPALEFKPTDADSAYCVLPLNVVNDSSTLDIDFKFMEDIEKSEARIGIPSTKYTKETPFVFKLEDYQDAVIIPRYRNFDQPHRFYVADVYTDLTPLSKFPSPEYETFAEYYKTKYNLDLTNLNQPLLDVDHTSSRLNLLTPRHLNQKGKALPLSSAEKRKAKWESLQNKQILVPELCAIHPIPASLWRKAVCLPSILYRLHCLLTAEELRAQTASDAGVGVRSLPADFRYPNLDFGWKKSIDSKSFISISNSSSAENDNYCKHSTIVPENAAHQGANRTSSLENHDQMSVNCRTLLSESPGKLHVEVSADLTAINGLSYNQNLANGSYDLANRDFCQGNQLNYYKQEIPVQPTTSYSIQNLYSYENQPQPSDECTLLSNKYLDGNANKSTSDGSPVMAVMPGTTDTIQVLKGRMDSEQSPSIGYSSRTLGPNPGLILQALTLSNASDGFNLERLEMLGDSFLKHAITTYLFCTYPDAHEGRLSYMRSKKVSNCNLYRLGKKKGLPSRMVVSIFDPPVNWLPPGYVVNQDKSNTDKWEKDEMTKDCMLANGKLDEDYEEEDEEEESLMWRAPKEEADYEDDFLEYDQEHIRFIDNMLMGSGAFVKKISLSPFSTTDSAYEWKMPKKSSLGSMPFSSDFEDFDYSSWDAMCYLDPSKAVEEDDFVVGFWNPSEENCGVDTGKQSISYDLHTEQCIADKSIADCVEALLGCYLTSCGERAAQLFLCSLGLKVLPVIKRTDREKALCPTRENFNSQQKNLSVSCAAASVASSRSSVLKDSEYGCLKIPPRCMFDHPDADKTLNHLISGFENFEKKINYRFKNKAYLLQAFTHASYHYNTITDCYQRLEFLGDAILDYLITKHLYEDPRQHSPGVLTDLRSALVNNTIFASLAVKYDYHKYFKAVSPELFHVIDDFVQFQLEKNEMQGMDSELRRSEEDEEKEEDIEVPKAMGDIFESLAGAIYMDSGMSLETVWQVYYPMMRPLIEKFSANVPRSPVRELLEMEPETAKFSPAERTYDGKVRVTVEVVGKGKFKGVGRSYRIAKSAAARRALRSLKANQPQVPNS

T1: KH-type splicing regulatory protein (KSRP) (human (endogenous in CRC cells)) (UniProt Q92945)
T1 sequence: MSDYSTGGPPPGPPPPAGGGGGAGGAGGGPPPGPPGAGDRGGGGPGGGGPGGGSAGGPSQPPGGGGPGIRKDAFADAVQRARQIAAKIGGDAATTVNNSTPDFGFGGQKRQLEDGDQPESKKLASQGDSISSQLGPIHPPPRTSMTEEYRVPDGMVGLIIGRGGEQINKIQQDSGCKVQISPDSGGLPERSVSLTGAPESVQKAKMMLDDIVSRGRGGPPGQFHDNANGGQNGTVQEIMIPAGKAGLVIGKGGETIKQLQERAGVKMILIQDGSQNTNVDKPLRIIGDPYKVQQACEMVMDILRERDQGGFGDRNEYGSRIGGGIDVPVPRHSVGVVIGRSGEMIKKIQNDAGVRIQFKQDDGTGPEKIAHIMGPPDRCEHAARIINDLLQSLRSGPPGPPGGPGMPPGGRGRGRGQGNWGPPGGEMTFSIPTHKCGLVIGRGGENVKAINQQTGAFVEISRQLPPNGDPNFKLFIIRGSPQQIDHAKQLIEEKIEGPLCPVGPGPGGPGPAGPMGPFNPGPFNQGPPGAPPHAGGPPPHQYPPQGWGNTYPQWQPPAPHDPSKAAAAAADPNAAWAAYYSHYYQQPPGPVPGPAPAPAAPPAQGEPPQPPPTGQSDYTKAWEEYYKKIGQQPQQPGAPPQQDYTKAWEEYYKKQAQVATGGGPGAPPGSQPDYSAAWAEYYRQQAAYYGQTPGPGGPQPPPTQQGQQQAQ


Biological target: T1, KH-type splicing regulatory protein (KSRP) (human (endogenous in CRC cells))
Assay: co-IP; endogenous Co-IP in CRC cells; KSRP immunoprecipitates incubated with or without RNase A (0.1 mg/mL) at 37°C for 20 min; Drosha and Dicer detected by blot

binding	Molecule
binds	Dicer (from UniProt Q9UPY3 1-1922) (enzyme)
binds	Drosha (enzyme, UniProt Q9NRR4 1-1374) MMQGNTCHRMSFHPGRGCPRGRGGHGARPSAPSFRPQNLRLLHPQQPPVQYQYEPPSAPSTTFSNSPAPNFLPPRPDFVPFPPPMPPSAQGPLPPCPIRPPFPNHQMRHPFPVPPCFPPMPPPMPCPNNPPVPGAPPGQGTFPFMMPPPSMPHPPPPPVMPQQVNYQYPPGYSHHNFPPPSFNSFQNNPSSFLPSANNSSSPHFRHLPPYPLPKAPSERRSPERLKHYDDHRHRDHSHGRGERHRSLDRRERGRSPDRRRQDSRYRSDYDRGRTPSRHRSYERSRERERERHRHRDNRRSPSLERSYKKEYKRSGRSYGLSVVPEPAGCTPELPGEIIKNTDSWAPPLEIVNHRSPSREKKRARWEEEKDRWSDNQSSGKDKNYTSIKEKEPEETMPDKNEEEEEELLKPVWIRCTHSENYYSSDPMDQVGDSTVVGTSRLRDLYDKFEEELGSRQEKAKAARPPWEPPKTKLDEDLESSSESECESDEDSTCSSSSDSEVFDVIAEIKRKKAHPDRLHDELWYNDPGQMNDGPLCKCSAKARRTGIRHSIYPGEEAIKPCRPMTNNAGRLFHYRITVSPPTNFLTDRPTVIEYDDHEYIFEGFSMFAHAPLTNIPLCKVIRFNIDYTIHFIEEMMPENFCVKGLELFSLFLFRDILELYDWNLKGPLFEDSPPCCPRFHFMPRFVRFLPDGGKEVLSMHQILLYLLRCSKALVPEEEIANMLQWEELEWQKYAEECKGMIVTNPGTKPSSVRIDQLDREQFNPDVITFPIIVHFGIRPAQLSYAGDPQYQKLWKSYVKLRHLLANSPKVKQTDKQKLAQREEALQKIRQKNTMRREVTVELSSQGFWKTGIRSDVCQHAMMLPVLTHHIRYHQCLMHLDKLIGYTFQDRCLLQLAMTHPSHHLNFGMNPDHARNSLSNCGIRQPKYGDRKVHHMHMRKKGINTLINIMSRLGQDDPTPSRINHNERLEFLGDAVVEFLTSVHLYYLFPSLEEGGLATYRTAIVQNQHLAMLAKKLELDRFMLYAHGPDLCRESDLRHAMANCFEALIGAVYLEGSLEEAKQLFGRLLFNDPDLREVWLNYPLHPLQLQEPNTDRQLIETSPVLQKLTEFEEAIGVIFTHVRLLARAFTLRTVGFNHLTLGHNQRMEFLGDSIMQLVATEYLFIHFPDHHEGHLTLLRSSLVNNRTQAKVAEELGMQEYAITNDKTKRPVALRTKTLADLLESFIAALYIDKDLEYVHTFMNVCFFPRLKEFILNQDWNDPKSQLQQCCLTLRTEGKEPDIPLYKTLQTVGPSHARTYTVAVYFKGERIGCGKGPSIQQAEMGAAMDALEKYNFPQMAHQKRFIERKYRQELKEMRWEREHQEREPDETEDIKK
